{"source": "PubChem BioAssay AID1347423", "about": "(Functional Genomics Laboratory (NCATS/FGL), 2020)", "note": "Out of some 52,000 sequences screened, about 210 (0.4%) were called active.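 The calls were made as follows: active = gene whose silencing raises cell survival under the drug, median off-target-corrected z-score across its silencing RNAs 2 or more; inactive = the rest.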 Some of the results follow."}
{"assay": "Resistance to Poly (ADP-Ribose) Polymerase inhibitor: Gene Identification via Genome-wide siRNA Screen", "settings": "mouse BRCA2 R2336H ES cells, olaparib, CellTiter-Glo viability; hits give high values", "procedure,_shortened": "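Genome-wide siRNA screen (3 siRNAs/gene, 20 nM) in mouse ES cells carrying hypomorphic BRCA2 R2336H; olaparib 500 nM added 48 h post-transfection, CellTiter-Glo viability 72 h later. Normalized to plate-median negative control; MAD z-scores, gene median, seed-adjusted.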"}
{"sequence": "GGCUUGCAUCAAUAAAGAATT against Adam33", "z-score": "inactive: -1.8"}
{"sequence": "GGAAGUGGUGAUGUAAAUATT against Tpp2", "z-score": "inactive: -0.661"}
{"sequence": "GGCCAAAGAGUUCAGCCUATT against Prrx2", "z-score": "inactive: -1.61"}
{"sequence": "GGAUACAUCCUUGCUGAAATT against Dapk1", "z-score": "inactive: 2.5"}
{"sequence": "AUGUGAUAGUGCCCAGCCUTT against Olfr884", "z-score": "inactive: 1.48"}
{"sequence": "GAAAGUGGCCGUAAAGGUGTT against Bapx1", "z-score": "inactive: -0.717"}
{"sequence": "GGUUUGAGGUAACACUAGATT against Vps39", "z-score": "inactive: 0.816"}
{"sequence": "GUUUCGAUUAUGUUAAAGCTT against 2210403B10Rik", "z-score": "inactive: 1.32"}
{"sequence": "GCUCAAGGCGACCUGUAUGTT against Map3k1", "z-score": "inactive: -0.256"}
{"sequence": "GCUCUGUUGUGGAUGCAAUTT against 2900060P06Rik", "z-score": "inactive: -0.307"}
{"sequence": "GGAUGUGGUCUCUAUACCGTT against 1600012H06Rik", "z-score": "inactive: 1.57"}
{"sequence": "CCUCCCAGAUUGCUCUAAUTT against 8430408G22Rik", "z-score": "inactive: -0.92"}
{"sequence": "GCUAGUCAUUUACAGAUCATT against Spesp1", "z-score": "inactive: -1.18"}
{"sequence": "CCAGGUCGAACAUUUAAACTT against Ifit3", "z-score": "inactive: 1.21"}
{"sequence": "GUUUACACUUUCAGGAAUATT against Olfr1218", "z-score": "inactive: -0.469"}
{"sequence": "GGACUACGGCAAAGAUGAGTT against Mrc2", "z-score": "inactive: -2.53"}
{"sequence": "CCUGGACCAGAAUAAACACTT against AI413414", "z-score": "inactive: 2.47"}
{"sequence": "GGCCUAACAGAACUGUGAGTT against P2ry2", "z-score": "inactive: -2.05"}
{"sequence": "GGAACACAGAGAAUACAAATT against Sdccag8", "z-score": "inactive: -1.15"}
{"sequence": "CGGUAGAAGGCUUAGGCAATT against Aox1", "z-score": "inactive: -1.97"}
{"sequence": "GCAUGUUGAAAUCAAUUGATT against Cacnb4", "z-score": "inactive: 0.648"}
{"sequence": "GGAGAAGGACCAUCUAAAGTT against Cmah", "z-score": "inactive: -0.0702"}
{"sequence": "GGAAAUGAUACCUUACCACTT against 2610041B18Rik", "z-score": "inactive: -0.277"}
{"sequence": "GCGUGAGAAAACCUUGGAUTT against Tas2r115", "z-score": "inactive: -0.768"}
{"sequence": "GGUAAACGAUCCAGAUGCATT against A730055C05Rik", "z-score": "inactive: -0.225"}
{"sequence": "GGAUCUGGUCUUAACUUAATT against 5830457O10Rik", "z-score": "inactive: 0.126"}
{"sequence": "GGCAUACCGUAAAAGUGGCTT against Olfr73", "z-score": "inactive: 0.372"}
{"sequence": "GGGUUAGACGAAGAUGAGATT against 2310065K24Rik", "z-score": "inactive: 0.908"}
{"sequence": "GGACAUGGAUUUCAUCAUGTT against Slc35a5", "z-score": "inactive: -0.322"}
{"sequence": "CCAAGUAUGAGGAACGAGUTT against Creb3l3", "z-score": "inactive: -0.895"}
{"sequence": "CCCACUGCAUUACUCACUCTT against Olfr873", "z-score": "inactive: 0.69"}
{"sequence": "CCCAUGACCUAUGUUGUAGTT against Xpc", "z-score": "inactive: -0.857"}
{"sequence": "GGAAGAGAUGAACUCUCAGTT against Sf3b2", "z-score": "inactive: -3"}
{"sequence": "GGGUUUAAGUAUGUUGUAATT against Exoc8", "z-score": "inactive: -0.522"}
{"sequence": "GGAGGAGAAUUACUCCUUUTT against BC019367", "z-score": "inactive: -0.418"}
{"sequence": "CGGAAAACGAAUAAACUACTT against Gria2", "z-score": "inactive: -0.229"}
{"sequence": "GCUACAUUCCUCAAAUACCTT against G6pdx", "z-score": "inactive: 0.178"}
{"sequence": "GCUAACACAACGAGAGAAGTT against Ushbp1", "z-score": "inactive: -2.54"}
{"sequence": "GGAGUGCAAGGACUUUGUGTT against 0610009H04Rik", "z-score": "inactive: -0.5"}
{"sequence": "GGUGGACAUGUGGAAUGAUTT against D4Bwg1540e", "z-score": "inactive: 0.377"}
{"sequence": "GUGAAAACCGCCAGAUGAATT against V1rc27", "z-score": "inactive: 0.82"}
{"sequence": "GCUAGAAAAUCUCUCCAACTT against Cnn2", "z-score": "inactive: -0.616"}
{"sequence": "AUACCCAACACCUAGUAACTT against Sval3", "z-score": "inactive: -1.57"}
{"sequence": "GGAUUAGACUGUCUUCAGCTT against Rnf144", "z-score": "inactive: 1.16"}
{"sequence": "GGAUGACACAACUAUGACATT against Lmbr1", "z-score": "inactive: 0.859"}
{"sequence": "GGUGGAUUCUAGCUUGUCGTT against Dusp10", "z-score": "inactive: 0.122"}
{"sequence": "GGCAGUGGCUAUCAUGAGATT against Dpep1", "z-score": "inactive: -0.818"}
{"sequence": "CGCACUGCUAAUCAUUCCCTT against Slc35f2", "z-score": "inactive: 0.986"}
{"sequence": "GCAACUAUGACCAUAAACUTT against Gabre", "z-score": "inactive: 0.534"}
{"sequence": "GGAACUUCUCUGUUUUAGATT against Olfr802", "z-score": "inactive: 0.774"}
{"sequence": "GGGUAACUAGAAACAGACUTT against Olfr1351", "z-score": "inactive: -1"}
{"sequence": "GGCGAACGGUACUUAGACUTT against Agxt2l1", "z-score": "inactive: 1.37"}
{"sequence": "GCGAAUGAUUGUCAGCAAATT against Gata1", "z-score": "inactive: 0.405"}
{"sequence": "GGGAGAAACAAGUGUGUAATT against 6330548G22Rik", "z-score": "inactive: -0.265"}
{"sequence": "GGGUGUGCAUUUGUACUACTT against Smad9", "z-score": "inactive: 0.879"}
{"sequence": "UUCUACGUCUGUCUUCUUATT against Olfr180", "z-score": "inactive: -0.182"}
{"sequence": "GGAAGCUACAAAAAACCUCTT against Luzp1", "z-score": "inactive: 0.795"}
{"sequence": "GGAGCCAUUGUGAAUGUCUTT against Dcxr", "z-score": "inactive: -2.47"}
{"sequence": "GCUACUCUUUGUCUCAUGUTT against Hexb", "z-score": "inactive: 1.52"}
{"sequence": "GGAAGAAACUUAAAUGAGUTT against Eif3s7", "z-score": "inactive: 0.944"}
{"sequence": "GCAUAAAAUCAGUGAGGCCTT against C330017I15Rik", "z-score": "inactive: 0.894"}
{"sequence": "CCUUGCUCUGGCAAUCUGATT against G930045G22Rik", "z-score": "inactive: 0.504"}
{"sequence": "GGUCAACUUUGGCCUCUAUTT against Gpr142", "z-score": "inactive: 0.375"}
{"sequence": "GGUAAUUCGGUUCAAACCATT against 4921515J06Rik", "z-score": "inactive: -1.3"}
{"sequence": "CCCAGGUUCCGGAGAACAATT against Abcc5", "z-score": "inactive: -0.555"}
{"sequence": "GGGACUACCUCAUGUCAUUTT against Smad1", "z-score": "inactive: 2.64"}
